Data as given in the supplement of paper PMC8728848.
The other results are listed elsewhere or left out.

Columns and labels:
Test in all cases: glycan array binding signal (z-score within array); higher = stronger binding
Conditions in all cases: glycan notation: IUPAC condensed, linker removed
Gal(b1-3)GalNAc = molecular target: Gal(b1-3)GalNAc
Procedure, shortened: (§1)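 Arrays were curated from the Consortium for Functional Glycomics database, 3228 in total, and kept only where the protein sequence was available. Binding is expressed as a within-array Z-score. This score was averaged across arrays of the same protein sequence at different concentrations or buffers and across linkers, and negative values can be read as non-binding.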

[1] = molecular target: Gal(b1-3)GalNAc(b1-3)Gal(a1-4)Gal(b1-4)Glc
Procedure, shortened: as §1

[2] = molecular target: Gal(b1-3)GalNAc(b1-3)Gal(b1-4)Glc
Procedure, shortened: as §1

[3] = molecular target: Gal(b1-3)GalNAc(b1-3)Gal(b1-4)GlcNAc
Procedure, shortened: as §1

[4] = molecular target: Gal(b1-3)GalNAc(b1-4)Gal(b1-4)Glc
Procedure, shortened: as §1

[5] = molecular target: Gal(b1-3)GalNAc(b1-4)[Neu5Ac(a2-3)]Gal(b1-4)Glc
Procedure, shortened: as §1

[6] = molecular target: Gal(b1-3)GlcNAc(b1-3)Gal(b1-3)GlcNAc
Procedure, shortened: as §1

[7] = molecular target: Gal(b1-3)[Fuc(a1-4)]GlcNAc
Procedure, shortened: as §1

[8] = molecular target: Gal(b1-3)[Fuc(a1-4)]GlcNAc(b1-3)Gal(b1-3)[Fuc(a1-4)]GlcNAc
Procedure, shortened: as §1

[9] = molecular target: Gal(b1-3)[Fuc(a1-4)]GlcNAc(b1-3)Gal(b1-4)GlcNAc
Procedure, shortened: as §1

[10] = molecular target: Gal(b1-3)[Fuc(a1-4)]GlcNAc(b1-3)Gal(b1-4)[Fuc(a1-3)]GlcNAc
Procedure, shortened: as §1

[11] = molecular target: Gal(b1-3)[GlcNAc(b1-6)]GalNAc
Procedure, shortened: as §1

[12] = molecular target: Gal(b1-3)[GlcNAc(b1-6)]GlcNAc
Procedure, shortened: as §1

[13] = molecular target: Gal(b1-3)[Neu5Ac(a2-6)]GalNAc
Procedure, shortened: as §1

[14] = molecular target: Gal(b1-3)[Neu5Ac(a2-6)]GlcNAc
Procedure, shortened: as §1

[15] = molecular target: Gal(b1-3)[Neu5Ac(a2-6)]GlcNAc(a1-4)Gal(b1-4)Glc
Procedure, shortened: as §1

[16] = molecular target: Gal(b1-3)[Neu5Ac(b2-6)]GlcNAc
Procedure, shortened: as §1

[17] = molecular target: Gal(b1-4)GalNAc(a1-3)[Fuc(a1-2)]Gal(b1-4)GlcNAc
Procedure, shortened: as §1

[18] = molecular target: Gal(b1-4)GalNAc(b1-3)[Fuc(a1-2)]Gal(b1-4)GlcNAc
Procedure, shortened: as §1

Gal(b1-4)Glc = molecular target: Gal(b1-4)Glc
Procedure, shortened: as §1

Gal(b1-4)Glc6S = molecular target: Gal(b1-4)Glc6S
Procedure, shortened: as §1

Gal(b1-4)GlcNAc = molecular target: Gal(b1-4)GlcNAc
Procedure, shortened: as §1

[19] = molecular target: Gal(b1-4)GlcNAc(b1-2)Man(a1-3)[Gal(b1-4)GlcNAc(b1-2)Man(a1-6)]Man(b1-4)GlcNAc(b1-4)GlcNAc
Procedure, shortened: as §1

[20] = molecular target: Gal(b1-4)GlcNAc(b1-3)Gal(b1-3)GlcNAc
Procedure, shortened: as §1

[21] = molecular target: Gal(b1-4)GlcNAc(b1-3)Gal(b1-4)Glc
Procedure, shortened: as §1

[22] = molecular target: Gal(b1-4)GlcNAc(b1-3)Gal(b1-4)GlcNAc
Procedure, shortened: as §1

[23] = molecular target: Gal(b1-4)GlcNAc(b1-3)Gal(b1-4)GlcNAc(b1-3)Gal(b1-4)GlcNAc
Procedure, shortened: as §1

[24] = molecular target: Gal(b1-4)GlcNAc(b1-3)Gal(b1-4)[Fuc(a1-3)]GlcNAc(b1-3)Gal(b1-4)[Fuc(a1-3)]GlcNAc
Procedure, shortened: as §1

[25] = molecular target: Gal(b1-4)GlcNAc(b1-3)GalNAc
Procedure, shortened: as §1

[26] = molecular target: Gal(b1-4)GlcNAc(b1-3)[Gal(b1-4)GlcNAc(b1-6)]GalNAc
Procedure, shortened: as §1

[27] = molecular target: Gal(b1-4)GlcNAc(b1-6)GalNAc
Procedure, shortened: as §1

[28] = molecular target: Gal(b1-4)GlcNAc(b1-6)[Gal(b1-3)]GalNAc
Procedure, shortened: as §1

[29] = molecular target: Gal(b1-4)GlcNAc(b1-6)[Gal(b1-3)]GlcNAc
Procedure, shortened: as §1

Gal3S(b1-3)GalNAc = molecular target: Gal3S(b1-3)GalNAc
Procedure, shortened: as §1

Gal3S(b1-3)GlcNAc = molecular target: Gal3S(b1-3)GlcNAc
Procedure, shortened: as §1

[30] = molecular target: Gal3S(b1-3)[Fuc(a1-4)]GlcNAc
Procedure, shortened: as §1

Gal3S(b1-4)Glc = molecular target: Gal3S(b1-4)Glc
Procedure, shortened: as §1

Gal3S(b1-4)Glc6S = molecular target: Gal3S(b1-4)Glc6S
Procedure, shortened: as §1

Gal3S(b1-4)GlcNAc = molecular target: Gal3S(b1-4)GlcNAc
Procedure, shortened: as §1

Gal3S(b1-4)GlcNAc6S = molecular target: Gal3S(b1-4)GlcNAc6S
Procedure, shortened: as §1

Gal3S6S(b1-4)GlcNAc = molecular target: Gal3S6S(b1-4)GlcNAc
Procedure, shortened: as §1

Gal3S6S(b1-4)GlcNAc6S = molecular target: Gal3S6S(b1-4)GlcNAc6S
Procedure, shortened: as §1

Gal4S(b1-4)GlcNAc = molecular target: Gal4S(b1-4)GlcNAc
Procedure, shortened: as §1

Gal4S6S(b1-4)GlcNAc = molecular target: Gal4S6S(b1-4)GlcNAc
Procedure, shortened: as §1

Gal6S(b1-4)Glc = molecular target: Gal6S(b1-4)Glc
Procedure, shortened: as §1

Gal6S(b1-4)Glc6S = molecular target: Gal6S(b1-4)Glc6S
Procedure, shortened: as §1

Gal6S(b1-4)GlcNAc = molecular target: Gal6S(b1-4)GlcNAc
Procedure, shortened: as §1

GalNAc(a1-3)Gal = molecular target: GalNAc(a1-3)Gal
Procedure, shortened: as §1

GalNAc(a1-3)GalNAc = molecular target: GalNAc(a1-3)GalNAc
Procedure, shortened: as §1

[31] = molecular target: GalNAc(b1-3)Gal(a1-4)Gal(b1-4)GlcNAc
Procedure, shortened: as §1

GalNAc(b1-4)GlcNAc = molecular target: GalNAc(b1-4)GlcNAc
Procedure, shortened: as §1

Glc(a1-4)Glc = molecular target: Glc(a1-4)Glc
Procedure, shortened: as §1

Glc(a1-6)Glc(a1-6)Glc = molecular target: Glc(a1-6)Glc(a1-6)Glc
Procedure, shortened: as §1

Glc(b1-4)Glc = molecular target: Glc(b1-4)Glc
Procedure, shortened: as §1

Glc(b1-6)Glc = molecular target: Glc(b1-6)Glc
Procedure, shortened: as §1

GlcA(b1-3)Gal = molecular target: GlcA(b1-3)Gal
Procedure, shortened: as §1

GlcA(b1-6)Gal = molecular target: GlcA(b1-6)Gal
Procedure, shortened: as §1

[32] = molecular target: GlcNAc(a1-3)Gal(b1-4)GlcNAc
Procedure, shortened: as §1

[33] = molecular target: GlcNAc(a1-6)Gal(b1-4)GlcNAc
Procedure, shortened: as §1

[34] = molecular target: GlcNAc(b1-2)Gal(b1-3)GlcNAc
Procedure, shortened: as §1

B1: C-Reactive Protein (Homo sapiens), P02741 (protein)
chain: MEKLLCFLVLTSLSHAFGQTDMSRKAFVFPKESDTSYVSLKAPLTKPLKAFTVCLHFYTELSSTRGYSIFSYATKRQDNEILIFWSKDIGYSFTVGGSEILFEVPEVTVAPVHICTSWESASGIVEFWVDGKPRVRKSLKKGYTVGAEASIILGQEQDSFGGNFEGSQSLVGDIGNVNMWDFVLSPDEINTIYLGGPFSPNVLNWRALKYEVQGEVFTKPQLWP
Q: Which “glycan array binding signal (z-score)” value (Gal(b1-3)GalNAc) does the source give for B1 here?
A: -0.176

Q: What about the “glycan array binding signal (z-score)” value [1] of the same binder?
A: -0.576

Q: And the “glycan array binding signal (z-score)” value [2]?
A: -0.33

Q: What about the “glycan array binding signal (z-score)” value [3] of the same binder?
A: -0.465

Q: What about the “glycan array binding signal (z-score)” value [4] of the same binder?
A: -0.504

Q: What about the “glycan array binding signal (z-score)” value [5] of the same binder?
A: -0.315

Q: What about the “glycan array binding signal (z-score)” value [6] of the same binder?
A: 1.62

Q: And the “glycan array binding signal (z-score)” value [7]?
A: -0.611

Q: What about the “glycan array binding signal (z-score)” value [8] of the same binder?
A: 0.76

Q: What about the “glycan array binding signal (z-score)” value [9] of the same binder?
A: -0.4

Q: What about the “glycan array binding signal (z-score)” value [10] of the same binder?
A: -0.468

Q: And the “glycan array binding signal (z-score)” value [11]?
A: 0.493

Q: What about the “glycan array binding signal (z-score)” value [12] of the same binder?
A: -0.424

Q: And the “glycan array binding signal (z-score)” value [13]?
A: -0.455

Q: What about the “glycan array binding signal (z-score)” value [14] of the same binder?
A: -0.366

Q: And the “glycan array binding signal (z-score)” value [15]?
A: -0.13

Q: And the “glycan array binding signal (z-score)” value [16]?
A: -0.64

Q: And the “glycan array binding signal (z-score)” value [17]?
A: -0.454

Q: And the “glycan array binding signal (z-score)” value [18]?
A: -0.521

Q: And the “glycan array binding signal (z-score)” value (Gal(b1-4)Glc)?
A: -0.466

Q: What about the “glycan array binding signal (z-score)” value (Gal(b1-4)Glc6S) of the same binder?
A: 0.381

Q: And the “glycan array binding signal (z-score)” value (Gal(b1-4)GlcNAc)?
A: 0.3

Q: And the “glycan array binding signal (z-score)” value [19]?
A: -0.647

Q: And the “glycan array binding signal (z-score)” value [20]?
A: 0.715

Q: And the “glycan array binding signal (z-score)” value [21]?
A: 0.824

Q: And the “glycan array binding signal (z-score)” value [22]?
A: 0.622

Q: And the “glycan array binding signal (z-score)” value [23]?
A: 0.148

Q: And the “glycan array binding signal (z-score)” value [24]?
A: 0.095

Q: And the “glycan array binding signal (z-score)” value [25]?
A: 0.197

Q: And the “glycan array binding signal (z-score)” value [26]?
A: 0.275

Q: What about the “glycan array binding signal (z-score)” value [27] of the same binder?
A: -0.701

Q: What about the “glycan array binding signal (z-score)” value [28] of the same binder?
A: 0.321

Q: And the “glycan array binding signal (z-score)” value [29]?
A: -0.675

Q: What about the “glycan array binding signal (z-score)” value (Gal3S(b1-3)GalNAc) of the same binder?
A: 0.199

Q: And the “glycan array binding signal (z-score)” value (Gal3S(b1-3)GlcNAc)?
A: 0.084

Q: What about the “glycan array binding signal (z-score)” value [30] of the same binder?
A: 0.239

Q: And the “glycan array binding signal (z-score)” value (Gal3S(b1-4)Glc)?
A: -0.319

Q: And the “glycan array binding signal (z-score)” value (Gal3S(b1-4)Glc6S)?
A: 0.437

Q: What about the “glycan array binding signal (z-score)” value (Gal3S(b1-4)GlcNAc) of the same binder?
A: 1.44

Q: And the “glycan array binding signal (z-score)” value (Gal3S(b1-4)GlcNAc6S)?
A: 1.48

Q: What about the “glycan array binding signal (z-score)” value (Gal3S6S(b1-4)GlcNAc) of the same binder?
A: 1.47

Q: And the “glycan array binding signal (z-score)” value (Gal3S6S(b1-4)GlcNAc6S)?
A: -0.142

Q: What about the “glycan array binding signal (z-score)” value (Gal4S(b1-4)GlcNAc) of the same binder?
A: -0.497

Q: What about the “glycan array binding signal (z-score)” value (Gal4S6S(b1-4)GlcNAc) of the same binder?
A: 2.24

Q: What about the “glycan array binding signal (z-score)” value (Gal6S(b1-4)Glc) of the same binder?
A: 0.477

Q: And the “glycan array binding signal (z-score)” value (Gal6S(b1-4)Glc6S)?
A: -0.037

Q: And the “glycan array binding signal (z-score)” value (Gal6S(b1-4)GlcNAc)?
A: 0.062

Q: And the “glycan array binding signal (z-score)” value (GalNAc(a1-3)Gal)?
A: -0.545

Q: What about the “glycan array binding signal (z-score)” value (GalNAc(a1-3)GalNAc) of the same binder?
A: -0.666

Q: What about the “glycan array binding signal (z-score)” value [31] of the same binder?
A: -0.449

Q: What about the “glycan array binding signal (z-score)” value (GalNAc(b1-4)GlcNAc) of the same binder?
A: -0.559

Q: What about the “glycan array binding signal (z-score)” value (Glc(a1-4)Glc) of the same binder?
A: -0.315

Q: And the “glycan array binding signal (z-score)” value (Glc(a1-6)Glc(a1-6)Glc)?
A: -0.607

Q: What about the “glycan array binding signal (z-score)” value (Glc(b1-4)Glc) of the same binder?
A: -0.549

Q: And the “glycan array binding signal (z-score)” value (Glc(b1-6)Glc)?
A: -0.117

Q: And the “glycan array binding signal (z-score)” value (GlcA(b1-3)Gal)?
A: 0.365

Q: What about the “glycan array binding signal (z-score)” value (GlcA(b1-6)Gal) of the same binder?
A: -0.49

Q: And the “glycan array binding signal (z-score)” value [32]?
A: -0.627

Q: And the “glycan array binding signal (z-score)” value [33]?
A: -0.665

Q: What about the “glycan array binding signal (z-score)” value [34] of the same binder?
A: -0.421
